From PubChem BioAssay AID489008 (National Center for Advancing Translational Sciences (NCATS), 2010)
Inconclusive results, whose numbers are uncertain, are shown with a selection of clear calls. Where the call is inconclusive, the potency comes from a doubtful curve fit. Calls of active or inactive are those of the source. Calls come from the whole dose curve; as a rule, active = well fitted inhibition curve with a large enough effect; inconclusive = small, poorly fitted or top-dose-only effect; inactive = flat fitted curve, though single readings scatter.

Amino acid sequences for entries named in this document (tags omitted). Residues count along the entry.
UniProt P02791, 2-175 limits assumed: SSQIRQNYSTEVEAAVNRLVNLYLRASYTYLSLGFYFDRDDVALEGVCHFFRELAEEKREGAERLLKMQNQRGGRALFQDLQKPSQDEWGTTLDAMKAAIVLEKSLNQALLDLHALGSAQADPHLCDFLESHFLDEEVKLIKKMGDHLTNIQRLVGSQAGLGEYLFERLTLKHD

Each compound was assayed against Ferritin light chain (Equus caballus) (UniProt P02791) (assay: Confirmation Assay for Identification of Novel General Anesthetics). Details: apoferritin 1-aminoanthracene fluorescence displacement.
How it was run: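 Competitive displacement of profluorescent 1-aminoanthracene from 10 uM horse-spleen apoferritin in 50% saturated 1-AMA/PBS; 10 min RT, fluorescence Ex 380/Em 535. Normalized to free 1-AMA and complex; four-parameter Hill fit.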
Note: nearly all actives have a fitted effect of over 40% in size.
Potency is the fitted concentration of half-maximal effect.

Potency, inconclusive:
O=C(CC(=O)c1ccccc1O)c1cccc(F)c1 17.8 µM [inhibitor, partial curve]
CCCCSc1ccc(NC(=O)c2cccnc2)cc1 17.8 µM [inhibitor, partial curve]
c1ccc(COc2ccc(CNCc3cccs3)cc2)cc1 35.5 µM [inhibitor, partial curve]
Cc1cc(N2CCC(C)CC2)nc2cccc(O)c12 31.6 µM [inhibitor, partial curve]
O=S(=O)(Cc1ccccc1Cl)NCCc1ccc(F)cc1 12.6 µM [inhibitor, partial curve]
Nc1nnc(SCC(=O)c2ccc3ccccc3c2)s1 35.5 µM [inhibitor, partial curve]
O=c1cc2c(nn1Cc1ccc(Cl)cc1)-c1ccccc1CC2 28.2 µM [inhibitor, partial curve]
Nc1nnc(CSCc2ccccc2)s1 31.6 µM [inhibitor, partial curve]
CN1C(=O)CSc2ccc(NC(=O)NCCC3=CCCCC3)cc21 25.1 µM [inhibitor, partial curve]

Fetched one by one from the list above, 2 records:
Potency, inconclusive:
Nc1nnc(CSCc2ccccc2)s1 31.6 µM [inhibitor, partial curve]
O=c1cc2c(nn1Cc1ccc(Cl)cc1)-c1ccccc1CC2 28.2 µM [inhibitor, partial curve]

Following part.

Potency, active:
CC(C)c1ccccc1OCC(=O)N1CCCCCCC1 11.2 µM
COc1ccc(CNC(=O)CN2N=C(c3ccc(Cl)cc3)CCC2=O)cc1 20.7 µM
CCCCSC(=O)Nc1ccccc1 7.08 µM
CCOC(=O)c1c(C(C)(C)C)oc2ccc(O)cc12 39.8 µM
